Data: publication PMC3968527, “Dynamic mass redistribution analysis of endogenous β-adrenergic receptor signaling in neonatal rat cardiac fibroblasts” (Pharmacology Research & Perspectives, 2014)

Tested on: endogenous βAR in primary neonatal rat cardiac fibroblasts (NRCF)
Assay: Dynamic mass redistribution (DMR) response to βAR ligands in NRCF
Assay type: cell-based
Settings: Cardiac fibroblast, βAR antagonist alone, positive-deflected DMR (inverse agonism)

## CC(C)NCC(O)COc1cccc2ccccc12 (stereo not shown) [Propranolol, propranolol]
  EC50: 32.7 ± 6.4 nM
